Some of the results follow. The main result of the screen is listed elsewhere. These columns were measured beside it and carry no call. Most of these compounds were active or inconclusive in the main read-out, so they are no random draw. The note in brackets gives the kind of curve behind each potency; many fits are weak.
Assay: qHTS Assay for Lipid Storage Modulators in Drosophila S3 Cells;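 on cell number change: cells counted by Cell Tracker Red CMTPX staining in the red channel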
Conditions: BODIPY lipid droplet fluorescence, 18-24 h; for cell number change: measured here: cell count max response, cells fed with added oleic acid
How it was run: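 Laser-scanning cytometry quantifies lipid droplet accumulation (500–530 nm total intensity; droplet/cell object ratio) in oleic acid-fed (400 uM added) Drosophila S3 cells treated with a concentration series. 20 uM Triacsin C defined 100% inhibition.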

[1] = measured here: lipid fluorescence (Fed channel) AC50, cells fed with added oleic acid
[2] = measured here: cell number channel AC50, cells fed with added oleic acid

Row | Structure (SMILES) | cell number change | AC50 [1] | AC50 [2]
1 | O=C(CCCN1C(=O)/C(=C\c2ccco2)SC1=S)Nc1ccc2ccccc2c1 | -27.1% | 9.2 µM [falling, partial curve, poor fit] | 
2 | N/C(Cc1cccs1)=N\OC(=O)COc1ccc(Br)cc1 | 29.6% | 29.1 µM [rising, single point] | 
3 | CC[C@H](C)[C@@H](C(=O)NCCCCCCCCCCC(=O)N1CCN(C(=O)OC(C)(C)C)CC1)n1cc(CCCCCNC(=O)OC(C)(C)C)nn1 | -37.9% | 29.1 µM [falling, single point] | 10.3 µM [falling, partial curve]
4 | CCOC(=O)c1nc(C)n(-c2cc(Cl)ccc2Cl)n1 | 22.8% | 6.51 µM [falling, single point] | 
5 | COc1ccc(-c2cc3ccc(OCc4nn[nH]n4)cc3oc2=O)cc1OC | -9.91% | 0.103 µM [falling, partial curve, poor fit] | 
6 | CCCCCCCN1C/C=C\C(c2ccc(OC)cc2)N(Cc2ccc(F)cc2)C(=O)[C@H]1Cc1ccccc1 (some centres not stated) | 19.1% | 10.3 µM [rising, partial curve] | 
7 | O=C(NCC1CCCO1)C1CCC(=O)N1Cc1ccccc1Cl (configuration not stated) | -38% |  | 10.3 µM [falling, partial curve, poor fit]
8 | O=C(COC(=O)/C=C/c1ccccc1[N+](=O)[O-])Nc1ccc(OCc2ccccc2)cc1 |  |  | 1.64 µM [falling, partial curve, poor fit]
9 | O=S(=O)(NCCc1csc(-c2cccnc2)n1)c1ccc(Cl)s1 | 11.2% | 6.51 µM [rising, partial curve, poor fit] | 
10 | COc1ccc(CCNC(=O)C2CCN(S(=O)(=O)N3CCC4(CC3)OCCO4)CC2)cc1OC | 12.6% | 10.3 µM [rising, single point] | 
11 | CCc1ccc(N(CC(=O)Nc2nc3ccc(C)cc3s2)S(=O)(=O)c2c(C)noc2C)cc1 | 8.13% | 0.82 µM [falling, single point] | 
12 | O=C(O)CN1C(=O)/C(=C\c2cc([N+](=O)[O-])ccc2OCc2ccccc2Cl)SC1=S | 11.3% | 6.51 µM [falling, single point] | 
13 | O=C(CN1C(=O)C2C3C=CC(C3)C2C1=O)N1CC(=O)N(CCc2ccccc2)C(=O)C1 (configuration not stated) | 3.76% | 6.51 µM [falling, single point] | 0.116 µM [falling, full curve, poor fit]
14 | O=C(CSc1nnnn1C1CCCCC1)NCc1cccs1 | 23.6% | 0.00461 µM [rising, full curve, poor fit] | 
15 | COc1ccc(S(=O)(=O)N2CCCCCC2)cc1C(=O)N(C)CCOc1ccc(Cl)cc1 |  | 1.3 µM [falling, partial curve] | 
16 | CC(=O)c1ccc(Nc2c([N+](=O)[O-])ccc3nonc23)cc1 | 61.1% | 29.1 µM [falling, single point] | 29.1 µM [rising, single point]
17 | CCC(=O)Nc1ccc(NC(=O)CSc2nnc(C(C)C)n2C)cc1 | 7.47% |  | 
18 | C/C(=N\NC(=O)CNc1cccc(Cl)c1C)c1cccs1 | -33.7% | 23.1 µM [falling, single point] | 8.2 µM [falling, partial curve]
19 | CCc1noc(C)c1C(=O)OCC(=O)NC(=O)c1ccccc1 | 1.49% | 0.13 µM [falling, full curve, poor fit] | 
20 | CCN1CCN(C(=O)CN(C)S(=O)(=O)c2ccc(OC)c(C)c2)CC1 | 7.72% | 0.461 µM [falling, single point] | 

Record cards (already shown).
O=C(COC(=O)/C=C/c1ccccc1[N+](=O)[O-])Nc1ccc(OCc2ccccc2)cc1 is listed as AC50 [2]: 1.64 µM [falling, partial curve, poor fit]
O=C(CCCN1C(=O)/C(=C\c2ccco2)SC1=S)Nc1ccc2ccccc2c1 is listed as cell number change: -27.1%; AC50 [1]: 9.2 µM [falling, partial curve, poor fit]

Remaining list, next part

Row | Structure (SMILES) | cell number change | AC50 [1] | AC50 [2]
21 | CN1C(=O)/C(=C\c2cc(Br)cs2)c2ccccc21 | 32.1% |  | 8.2 µM [rising, partial curve, poor fit]
22 | CCCCN(C(=O)CCC(=O)Nc1cc(C)on1)C(C(=O)NC1CCCC1)c1ccccc1C (configuration not stated) | 13.3% |  | 
23 | CCOC(=O)CSc1nnc(CNC(=O)c2ccccc2OC)n1-c1ccc(OC)cc1 | 0.833% | 2.91 µM [falling, single point] | 
24 | CN(C)C(CNC(=O)c1ccc(NS(=O)(=O)c2ccc(F)cc2)cc1)c1ccco1 (configuration not stated) | 23.7% |  | 
25 | CC(OC(=O)CCc1nc(=O)c2ccccc2n1C)C(=O)NCc1ccc2c(c1)OCO2 (configuration not stated) | -12.9% | 0.651 µM [rising, single point] | 
26 | Cc1ccccc1NC(=O)NC1CCS(=O)(=O)C1 (configuration not stated) | 1.32% |  | 
27 | CNC(=S)N1N=C(c2ccccc2)CC1c1ccc(Br)cc1 (configuration not stated) | 6.59% | 0.103 µM [rising, full curve, poor fit] | 
28 | COc1ccc(OC)c(N=c2oc3c(OC)cccc3cc2C(=O)NCc2ccco2)c1 | -12.2% |  | 3.66 µM [falling, single point]
29 | CC(C)OC(=O)CC(=O)CSc1nc2c(cc1C#N)CCCCCC2 | 5.31% |  | 
30 | COc1cc2ccccc2cc1C(=O)Nc1ccc(N2CCN(C)CC2)cc1 | 21.3% | 18.4 µM [falling, single point] | 
31 | COc1cc(C(=O)Nc2ccc(NC(=O)C3CC3)nc2)cc(OC)c1OC | 1.53% | 4.11 µM [rising, single point] | 
32 | CC(CC(=O)N1CCN(c2ccccc2F)CC1)c1ccccc1 (configuration not stated) | 7% | 0.58 µM [falling, partial curve, poor fit] | 
33 | Cc1ccsc1/C=C1/SC(=O)N(CC(=O)N2CCCC2)C1=O | -9.52% |  | 0.00461 µM [falling, full curve, poor fit]
34 | Cc1ccc(S(=O)(=O)NCC(=O)OC(C)C(=O)c2ccccc2)cc1 (configuration not stated) | 99% | 29.1 µM [rising, partial curve] | 20.6 µM [rising, partial curve]
35 | CC(OC(=O)CCC(=O)c1ccc(Cl)s1)C(=O)NC1(C#N)CCCCC1 (configuration not stated) | 40.9% | 20.6 µM [rising, single point] | 29.1 µM [rising, single point]
36 | O=C(NCc1ccc(F)cc1)c1ccc(S(=O)(=O)N2CCCCC2)cc1 | 18.5% | 29.1 µM [rising, single point] | 
37 | CCOC(=O)c1[nH]c(C)c(C(=O)OC(C)C(=O)Nc2ncc(Cl)cc2Cl)c1C (configuration not stated) | -44.1% |  | 2.91 µM [falling, full curve]
38 | C=CCn1cc(C(=O)N2CCN(c3ccccc3)CC2)c(=O)c2cc(S(=O)(=O)N3CCCC3)ccc21 | -18.9% |  | 
39 | CC1CC(C)CN(CCC(=O)Nc2ccc(Br)cc2)C1 (configuration not stated) | 20.2% | 0.146 µM [rising, full curve, poor fit] | 
40 | O=C(CN1C(=O)NC2(CCCCC2)C1=O)N1CCOCC1 | -2.14% | 0.00517 µM [falling, full curve, poor fit] | 

Quoted at random: 2 compounds from above.
Row | Structure (SMILES) | cell number change | AC50 [1] | AC50 [2]
34 | Cc1ccc(S(=O)(=O)NCC(=O)OC(C)C(=O)c2ccccc2)cc1 (configuration not stated) | 99% | 29.1 µM [rising, partial curve] | 20.6 µM [rising, partial curve]
38 | C=CCn1cc(C(=O)N2CCN(c3ccccc3)CC2)c(=O)c2cc(S(=O)(=O)N3CCCC3)ccc21 | -18.9% |  | 

The results go on:

Row | Structure (SMILES) | cell number change | AC50 [1] | AC50 [2]
41 | Cc1ccc(C(N)=S)c(C)c1 | -14.3% | 2.06 µM [falling, full curve, poor fit] | 
42 | CN1CCN(c2ccccc2NC(=O)c2ccc(N3CCOCC3)c([N+](=O)[O-])c2)CC1 | -34.2% |  | 
43 | COc1ccc2cc3c(N)c(C(=O)N4CCCC4)sc3nc2c1 | -14.2% |  | 
44 | C#CCN(C)CCCOc1ccc(Cl)cc1Cl | -32.6% | 23.1 µM [falling, single point] | 29.1 µM [falling, single point]
45 | CN(C)S(=O)(=O)c1cccc(C(=O)NCC2CCCCC2)c1 | 10.5% |  | 
46 | Cc1cc(C)n(-c2ccc(C(=O)OCC(=O)N(CC(C)C)C3CCS(=O)(=O)C3)cc2)n1 (configuration not stated) | -11.2% |  | 
47 | O=C(Nc1ccccc1C(=O)NCc1ccco1)c1ccco1 | 12.9% | 20.6 µM [rising, partial curve] | 
48 | CC(C)(C)S(=O)(=O)/C(C#N)=N/Nc1ccc(Cl)cc1 | -20.3% | 29.1 µM [falling, single point] | 
49 | CCOC(=O)C1CCCN(CCC(=O)Nc2ccc(F)c(F)c2)C1 (configuration not stated) | 25.1% | 6.51 µM [falling, single point] | 
50 | O=C(COC(=O)CNS(=O)(=O)c1ccc(F)c(F)c1F)NCCc1ccccc1 | 41.1% | 29.1 µM [rising, single point] | 29.1 µM [rising, single point]
51 | CCOc1ccc2nc(SCC(=O)c3ccc(Cl)s3)sc2c1 | 45.1% |  | 18.4 µM [rising, single point]
52 | CC(=O)C1=C(C)N(CC2CC2)C(=O)N[C@H]1c1ccccc1 | -21% | 6.51 µM [falling, single point] | 
53 | Cc1ccc(/C=N/N2CCN(C3c4ccccc4-c4ccccc43)CC2)s1 | 3.14% | 0.517 µM [rising, full curve, poor fit] | 
54 | COc1ccc(CCNC(=O)CSc2ccccn2)cc1 | -3.38% | 0.00461 µM [falling, full curve, poor fit] | 0.00517 µM [falling, full curve, poor fit]
55 | Cc1nc(N2CCN(c3ccccn3)CC2)c2c(C)c(C(=O)Nc3ccc(Br)cc3C)sc2n1 | 130% |  | 20.6 µM [rising, single point]
56 | Cn1c(=O)c2c(nc(Sc3ncccn3)n2Cc2ccc(Cl)cc2)n(C)c1=O | -69.3% | 20.6 µM [falling, single point] | 18.4 µM [falling, single point]
57 | CCOC(=O)Cn1c(=N)n(CCOc2ccc(OC)cc2)c2ccccc21 | 21.3% |  | 
58 | Cc1ccccc1C(=O)O/N=C(\c1ccccc1)c1ccccn1 | 2.33% | 18.4 µM [rising, single point] | 
59 | Cc1cc(C)n(C(=O)CN2C(=O)COc3ccccc32)n1 | -19.8% |  | 
60 | O=C(CC12CC3CC(CC(C3)C1)C2)NCC(=O)N1CCc2ccccc2C1 | 77.8% | 6.51 µM [rising, single point] | 18.4 µM [rising, single point]
